We go through 13 compounds from the supplement of paper PMC9549374.

The other results are listed elsewhere or left out. No stated cut-off is given here; in the data, active = 2-fold of DMSO or more and inactive = the rest. Single values of this set are uncertain. Some low values are a fixed figure set by the source, not a measured ratio.

This test has as its system CM7/1-hgem mouse ES cell-derived cardiomyocytes. The test can be described thus: maximal number of mAG-hGem(1/110)-positive cardiomyocytes over 96 h, fold-change vs DMSO; higher = more cardiomyocyte cell cycle activity. The settings on record: 1 µM; 96 (max over 12 h time points) h.
As for `CCCCCC(=O)Cc1cc(O)cc(O)c1C(=O)Oc1cc(CC(=O)CCCCC)c(C(=O)O)c(OC)c1`, the maximal number was inactive: 0.
To `COc1c2ccoc2c(OC)c2oc(=O)ccc12` belongs inactive: 1.
For the compound `CC(C)/C(O)=C1/C(=O)O[C@@H](c2ccoc2)[C@]2(C)C(O)[C@@H](O)[C@@]34OC5(C)OC67CC(C)(C(O)[C@]6(O)[C@@H](O)[C@]3(O5)C12)[C@H](CC(=O)O)[C@]74C` (stereo partly drawn), the maximal number was inactive: 1.
To `CC(C)CCCC(C)C1CCC2C3CCC4CC(O)CCC4(C)C3CCC12C` (stereo not drawn) [5alpha-CHOLESTANOL] belongs inactive: 1.
To `CC(CCc1ccc(O)cc1)NCC(O)c1ccc(O)cc1` (stereo not drawn) belongs inactive: 1.
To `CCOC(=O)COc1ccc2c(=O)cc(-c3ccccc3)oc2c1` belongs inactive: 1; to `CCCc1nn(C)c2c(=O)[nH]c(-c3cc(S(=O)(=O)N4CCN(C)CC4)ccc3OCC)nc12`, inactive: 1; to `CC(=O)OC1CCC2(C)C3=C(CC[C@H]2C1(C)C)[C@@]1(C)CC[C@@H]([C@@H](C)CCC=C(C)C)[C@]1(C)CC3` (stereo partly drawn), inactive: 1.
In the case of `O=C(O)CCC(=O)c1ccc(-c2ccccc2)cc1`, the maximal number is inactive: 0.
The same measure for `C=C1C2CC[C@@]3(C)[C@H](c4ccoc4)OC(=O)C[C@]13O[C@H]1CC(=O)C(C)(C)[C@H](C(O)C(=O)OC)[C@@]21C` (stereo partly drawn): inactive: 0; for `C=C1CCC2C(CC2(C)C)C(=C)CC/C1=N/O` (stereo not drawn): inactive: 1; for `CC(C)=CCc1c(O)cc2oc(C)cc(=O)c2c1O`: inactive: 1.
To `O=c1c(O)cc([C@H]2Oc3cc(O)cc(O)c3C[C@H]2O)cc2c([C@H]3Oc4cc(O)cc(O)c4C[C@H]3O)cc(O)c(O)c12` belongs inactive: 1.
